Results are given in words; binding and its absence hold for the method and conditions named. Some entries that bind do so weakly or less than the wild type.
Legend:
[1] = biological target: Cynomolgus monkey MMP9 (cynomolgus monkey); assay: ELISA (Table 2)
Rat MMP9 = Rat MMP9 (rat, UniProt P50282 20-708, limits assumed); assay: ELISA (Table 2)
Mouse MMP9 (mouse) = Mouse MMP9 (mouse) (UniProt P41245); assay: ELISA

By UniProt entry, the sequences of proteins in these tests, tags left out. Residues count along the entry.
UniProt P50282, residues 20-708: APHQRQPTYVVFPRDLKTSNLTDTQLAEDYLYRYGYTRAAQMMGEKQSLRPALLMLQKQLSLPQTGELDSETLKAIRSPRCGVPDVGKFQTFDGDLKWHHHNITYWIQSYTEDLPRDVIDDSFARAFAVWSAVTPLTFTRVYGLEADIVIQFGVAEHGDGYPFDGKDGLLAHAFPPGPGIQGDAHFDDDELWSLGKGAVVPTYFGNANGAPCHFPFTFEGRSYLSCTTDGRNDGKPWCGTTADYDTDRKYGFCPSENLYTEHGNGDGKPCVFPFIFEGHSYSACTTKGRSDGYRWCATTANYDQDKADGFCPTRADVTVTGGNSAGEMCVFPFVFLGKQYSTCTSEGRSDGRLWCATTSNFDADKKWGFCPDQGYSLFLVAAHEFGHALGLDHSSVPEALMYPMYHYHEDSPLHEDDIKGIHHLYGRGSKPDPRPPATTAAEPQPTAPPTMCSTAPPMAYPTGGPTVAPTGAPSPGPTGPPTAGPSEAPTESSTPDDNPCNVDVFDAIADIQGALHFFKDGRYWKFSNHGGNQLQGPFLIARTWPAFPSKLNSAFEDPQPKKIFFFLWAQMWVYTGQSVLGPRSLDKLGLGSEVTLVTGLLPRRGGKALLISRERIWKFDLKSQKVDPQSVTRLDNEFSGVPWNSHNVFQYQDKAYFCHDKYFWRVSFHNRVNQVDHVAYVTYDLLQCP
UniProt P41245, residues 20-730: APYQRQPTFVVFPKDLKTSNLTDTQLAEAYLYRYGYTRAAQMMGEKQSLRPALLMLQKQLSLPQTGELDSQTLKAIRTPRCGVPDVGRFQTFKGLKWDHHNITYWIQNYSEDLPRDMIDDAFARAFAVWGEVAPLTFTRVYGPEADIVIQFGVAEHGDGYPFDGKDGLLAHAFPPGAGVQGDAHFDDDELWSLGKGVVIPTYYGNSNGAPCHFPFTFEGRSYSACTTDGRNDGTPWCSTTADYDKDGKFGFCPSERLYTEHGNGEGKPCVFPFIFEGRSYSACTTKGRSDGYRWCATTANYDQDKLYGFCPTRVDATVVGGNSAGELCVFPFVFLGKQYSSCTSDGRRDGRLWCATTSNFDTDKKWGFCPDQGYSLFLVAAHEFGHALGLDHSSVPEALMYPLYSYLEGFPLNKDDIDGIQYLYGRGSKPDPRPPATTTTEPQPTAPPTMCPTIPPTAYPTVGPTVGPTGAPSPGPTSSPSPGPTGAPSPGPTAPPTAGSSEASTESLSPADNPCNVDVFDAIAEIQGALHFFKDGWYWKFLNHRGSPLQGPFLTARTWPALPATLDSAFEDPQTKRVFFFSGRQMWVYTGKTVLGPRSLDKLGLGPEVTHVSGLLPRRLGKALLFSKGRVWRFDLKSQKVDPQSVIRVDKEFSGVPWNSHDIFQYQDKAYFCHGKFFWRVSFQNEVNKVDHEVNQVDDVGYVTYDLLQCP

B1: AB0041 (antibody, mouse IgG2b, kappa, V domains shown)
VH: QVQLKESGPGLVAPSQSLSITCTVSGFSLLSYGVHWVRQPPGKGLEWLGVIWTGGTTNYNSALMSRLSISKDDSKSQVFLKMNSLQTDDTAIYYCARYYYGMDYWGQGTSVTVSS
VL: DIVMTQSHKFMSTSVGDRVSITCKASQDVRNTVAWYQQKTGQSPKLLIYSSSYRNTGVPDRFTGSGSGTDFTFTISSVQAEDLAVYFCQQHYITPYTFGGGTKLEIKR
notes: Mouse IgG2b/kappa from hybridoma; derived by aligning the variable region entries to the full chains; also called mouse monoclonal anti-MMP9 antibody (AB0041)
binding [1]: binds | binding (Rat MMP9): binds

B2: AB0046 (antibody, mouse IgG1, kappa, V domains shown)
VH: QVQLQQPGSVLVRPGASVKLSCTASGYTFTSYWMNWVKQRPGQGLEWIGEIYPISGRTNYNEKFKVKATLTVDTSSSTAYMDLNSLTSEDSAVYYCARSRANWDDYWGQGTTLTVSS
VL: DIQMTQTTSSLSASLGDRVTISCSASQGISNYLNWYQQKPDGTFKLLIYYTSILHSGVPSRFSGSGSGTDYSLTISNLEPEDIATYYCQQYGWLPRTFGGGTKLEIKR
notes: Mouse IgG1/kappa raised in MMP9-knockout mice against mouse MMP9; also called surrogate mouse antibody AB0046
binding (Mouse MMP9 (mouse)): binds

Reference: US20170183421A1 (Gilead, published 2017)
